Laboratory results: patent publication US12280088B2, “Dry powder formulation of caveolin-1 peptides and methods of use thereof” (BOARD OF REGENTS, THE UNIVERSITY OF TEXAS SYSTEM, priority 2018, dated 2025)
Values joined by “and” are separate entries in the source; they are usually repeats but may differ in a detail not shown here. Identical values can stand only once. Not every detail of the peptide structures is certain; ends, links or a residue may be inferred. Peptide text beside a SMILES is read from it.

Legend:
Format in all cases: physicochemical
[1] = Geometric particle size by Sympatec laser diffraction, dry dispersion
[2] = Geometric particle size by Sympatec laser diffraction, wet dispersion
Protocol: The particle sizes were next determined by Sympatec laser diffraction by a wet dispersion method. CSP7 was dissolved in ethanol +0.05% Tween 80 as dispersion medium and sonicated 10 min.

[3] = Particle size by Spraytec laser diffraction, dry dispersion; details: 40 PSI
[4] = Particle size by scanning electron microscopy
[5] = Particle size by optical microscopy
[6] = Moisture content by Karl Fischer-Volumetric titration
Dynamic vapor sorption = details: 25° C.
[7] = Aerodynamic particle size distribution of milled CSP7 by Next Generation Impactor
[8] = Stability study of milled CSP7 (ammonium counterion): aerodynamic particle size distribution by NGI
Protocol: Determination of aerodynamic particle size distribution of milled CSP7 bulk powder. Around 3.5 mg of milled CSP7 powder was manually filled into size 3 HPMC capsules (Capsugel, Peapack, N.J.). CSP7 capsules were then aerosolized using a RS01 Monodose Dry Powder Inhaler (high resistance) and aerodynamic particle size distribution was measured by a Next Generation Impactor (NGI, MSP Corp., Shoreview, Minn.). Aerosols were produced over 4 s at an air flow rate of 60 L/min for the inhaler to achieve an inhalation volume of 4 L and 4 kPa pressure drop across the device. Before each run, NGI collection surfaces were coated with 5% (v/v) polysorbate 20 in methanol. One capsule was shot for each run and each sample was ran in triplicate repetitions (three capsules). After aerosolization, all collection surfaces were rinsed with specific volumes of 20 mM Tris buffer (pH 10.3) to collect the drug. Powders deposited in the capsule, device, adaptor, throat, pre-separator, and stages 1-MOC were extracted respectively.
For each test, delivered dose is defined as the mass of CSP7 that entered the NGI. Geometric standard deviation (GSD), mass median aerodynamic diameter (MMAD) and fine particle fraction % (FPF %) are calculated and analyzed with Copley Inhaler Testing Data Analysis Software (CITDAS, Copley Scientific, Nottingham UK), based on the doses deposited on stages 1-MOC of NGI. The FPF is defined as the mass fraction of particles less than 5.0 μm with the delivered dose.
Stability study for milled CSP7 (ammonium counterion) from Lot #UTA181028. The stability of milled CSP7 powder was investigated under different storage conditions for a period of up to 6 months. Milled CSP7 peptide is packaged as two forms, bulk milled powder and encapsulated milled powder. For storage as bulk milled powder, 0.21-0.24 g peptide is filled in 20 mL scintillation vials (Kimble®, DWK Life Sciences, Millville, N.J., US) and stored within a heat-sealed foil pouch (Impak Corp, Los Angeles, Calif., US) containing two bags of 1 g silica gel desiccant (Tyvek®, Sorbco Packaging LLC, Belen, N. Mex., US) in each pouch. Milled peptide powder is also encapsulated in size 3 HPMC capsules (Capsugel, Morristown, N.J., US) in a weight of about 11±5% mg, and 22-26 capsules are then packaged in HDPE bottles (Drug Plastic, Boyertown, Pa., US), followed by sealing the HDPE bottle within a foil pouch (without desiccant). Packages are stored in stability chambers at the following storage conditions: −20° C., 25° C./60% RH, and 40° C./75% RH. Samples are removed for testing at 1, 3, and 6 months (Table 38). For tests except the aerodynamic particle size distribution, encapsulated powder was removed from the capsule and mixed in a glass vial by rotating the vial.
Aerodynamic particle size distribution: The aerodynamic particle size distribution was evaluated by performing NGI as described in Example 1, except that the powder weight in the tested capsule was 11±5% mg and pre-separator was removed in the assembly of the NGI in stability study.

[9] = Batch 171013 test, RS01 DPI, 60 L/min, ~3.5 mg per capsule
[10] = batch 171027 test, about 4.25 mg per capsule
[11] = 1 Month, Encapsulation, 25° C./60 RH
[12] = 1 Month, Encapsulation, 40° C./75 RH
[13] = 1 Month, Encapsulation, −20° C.
[14] = 3 Month, Encapsulation, 25° C./60 RH
[15] = 3 Month, Encapsulation, 40° C./75 RH
[16] = 6 Month, Encapsulation, 25° C./60 RH
[17] = 6 Month, Encapsulation, 40° C./75 RH
[18] = 6 Month, Encapsulation, −20° C.

CC(C)[C@H](NC(=O)[C@@H](NC(=O)[C@H](Cc1ccccc1)NC(=O)[C@@H](NC(=O)[C@@H](NC(=O)[C@@H](N)Cc1ccccc1)[C@@H](C)O)[C@@H](C)O)[C@@H](C)O)C(=O)N[C@H](C(=O)O)[C@@H](C)O [CSP7 bulk powder] (H-FTTFTVT-OH; N-terminus and C-terminus assumed)
Dv 10 [1]: 1.4 ± 0.0 μm
Dv 50 [1]: 5.3 ± 0.0 μm
Dv 90 [1]: 22.0 ± 1.7 μm
Dv 10 [2]: 7.2 ± 0.1 μm
Dv 50 [2]: 29.0 ± 0.8 μm
Dv 90 [2]: 63.9 ± 3.8 μm
% V < 5 μm [3]: 34.5±4.1%
Dv 10 [3]: 1.7 ± 0.2 μm
Dv 50 [3]: 29.0 ± 0.8 μm
Dv 90 [3]: 63.9 ± 3.8 μm
average particle size [3]: 8.6±1.5 μm
particle size by SEM [4]: > 5 μm
particle size by optical microscopy [5]: > 5 μm
Moisture Content, Average ([6]; average of 3 tests): 3.0%
Moisture Content ([6]; single tests 1-3 (triplicate)): 2.9% and 3.0% and 3.1%
moisture desorption (Dynamic vapor sorption; relative humidity 0%): 6.32%
mass change (Dynamic vapor sorption; relative humidity 90%): 10.54%
FPF % (<5 μm) [7, 9]: 19.3 ± 1.4%
GSD [7, 9]: 2.3 ± 0.2 μm
MMAD [7, 9]: 3.5 ± 0.2 μm
FPF % (<5 μm) [7, 10]: 16.4 ± 0.9%
GSD [7, 10]: 2.5 ± 0.0 μm
MMAD [7, 10]: 3.0 ± 0.3 μm

CC(C)[C@H](NC(=O)[C@@H](NC(=O)[C@H](Cc1ccccc1)NC(=O)[C@@H](NC(=O)[C@@H](NC(=O)[C@@H](N)Cc1ccccc1)[C@@H](C)O)[C@@H](C)O)[C@@H](C)O)C(=O)N[C@H](C(=O)O)[C@@H](C)O [milled CSP7 (ammonium counterion)] (H-FTTFTVT-OH; N-terminus and C-terminus assumed)
EF % ([8]; 1 Month, Bulk, 25° C./60 RH): 80.7%
FPD ([8]; 1 Month, Bulk, 25° C./60 RH): 7.7 mg
FPF % ([8]; 1 Month, Bulk, 25° C./60 RH): 92.2%
GSD ([8]; 1 Month, Bulk, 25° C./60 RH): 1.86
MMAD ([8]; 1 Month, Bulk, 25° C./60 RH): 1.69 μm
EF % ([8]; 1 Month, Bulk, 40° C./75 RH): 85.2%
FPD ([8]; 1 Month, Bulk, 40° C./75 RH): 8.0 mg
FPF % ([8]; 1 Month, Bulk, 40° C./75 RH): 91.8%
GSD ([8]; 1 Month, Bulk, 40° C./75 RH): 1.86
MMAD ([8]; 1 Month, Bulk, 40° C./75 RH): 1.79 μm
EF % ([8]; 1 Month, Bulk, −20° C.): 84%
FPD ([8]; 1 Month, Bulk, −20° C.): 8.0 mg
FPF % ([8]; 1 Month, Bulk, −20° C.): 88.8%
GSD ([8]; 1 Month, Bulk, −20° C.): 1.86
MMAD ([8]; 1 Month, Bulk, −20° C.): 1.86 μm
EF % [8, 11]: 81.6%
FPD [8, 11]: 7.6 mg
FPF % [8, 11]: 90.0%
GSD [8, 11]: 1.90
MMAD [8, 11]: 1.74 μm
EF % [8, 12]: 84.7%
FPD [8, 12]: 7.9 mg
FPF % [8, 12]: 89.6%
GSD [8, 12]: 1.90
MMAD [8, 12]: 1.80 μm
EF % [8, 13]: 83.6%
FPD [8, 13]: 7.3 mg
FPF % [8, 13]: 87.8%
GSD [8, 13]: 1.91
MMAD [8, 13]: 1.85 μm
EF % ([8]; 3 Month, Bulk, 25° C./60 RH): 79.8%
FPD ([8]; 3 Month, Bulk, 25° C./60 RH): 7.5 mg
FPF % ([8]; 3 Month, Bulk, 25° C./60 RH): 92.2%
GSD ([8]; 3 Month, Bulk, 25° C./60 RH): 1.84
MMAD ([8]; 3 Month, Bulk, 25° C./60 RH): 1.55 μm
EF % ([8]; 3 Month, Bulk, 40° C./75 RH): 82.9%
FPD ([8]; 3 Month, Bulk, 40° C./75 RH): 7.7 mg
FPF % ([8]; 3 Month, Bulk, 40° C./75 RH): 90.4%
GSD ([8]; 3 Month, Bulk, 40° C./75 RH): 1.91
MMAD ([8]; 3 Month, Bulk, 40° C./75 RH): 1.66 μm
EF % [8, 14]: 80.5%
FPD [8, 14]: 7.6 mg
FPF % [8, 14]: 89.4%
GSD [8, 14]: 1.85
MMAD [8, 14]: 1.76 μm
EF % [8, 15]: 83.4%
FPD [8, 15]: 7.4 mg
FPF % [8, 15]: 87.6%
GSD [8, 15]: 1.92
MMAD [8, 15]: 1.83 μm
EF % ([8]; 6 Month, Bulk, 25° C./60 RH): 80.4%
FPD ([8]; 6 Month, Bulk, 25° C./60 RH): 7.2 mg
FPF % ([8]; 6 Month, Bulk, 25° C./60 RH): 87.1%
GSD ([8]; 6 Month, Bulk, 25° C./60 RH): 1.86
MMAD ([8]; 6 Month, Bulk, 25° C./60 RH): 1.85 μm
EF % ([8]; 6 Month, Bulk, 40° C./75 RH): 81.9%
FPD ([8]; 6 Month, Bulk, 40° C./75 RH): 7.3 mg
FPF % ([8]; 6 Month, Bulk, 40° C./75 RH): 86.2%
GSD ([8]; 6 Month, Bulk, 40° C./75 RH): 1.92
MMAD ([8]; 6 Month, Bulk, 40° C./75 RH): 1.86 μm
EF % ([8]; 6 Month, Bulk, −20° C.): 79.1%
FPD ([8]; 6 Month, Bulk, −20° C.): 7.2 mg
FPF % ([8]; 6 Month, Bulk, −20° C.): 87.1%
GSD ([8]; 6 Month, Bulk, −20° C.): 1.90
MMAD ([8]; 6 Month, Bulk, −20° C.): 1.79 μm
EF % [8, 16]: 80.0%
FPD [8, 16]: 7.4 mg
FPF % [8, 16]: 87.9%
GSD [8, 16]: 1.90
MMAD [8, 16]: 1.77 μm
EF % [8, 17]: 80.7%
FPD [8, 17]: 7.4 mg
FPF % [8, 17]: 85.6%
GSD [8, 17]: 1.94
MMAD [8, 17]: 1.81 μm
EF % [8, 18]: 80.9%
FPD [8, 18]: 7.3 mg
FPF % [8, 18]: 85.3%
GSD [8, 18]: 1.95
MMAD [8, 18]: 1.90 μm
EF % ([8]; milled, Initiate): 83.5%
FPD ([8]; milled, Initiate): 8.3 mg
FPF % ([8]; milled, Initiate): 93.3%
GSD ([8]; milled, Initiate): 1.91
MMAD ([8]; milled, Initiate): 1.58 μm
